Data source: PubChem BioAssay AID743121 (NCATS, 2013)
This is a random part of about 26,000 reagents. 167 of all reagents (0.63%) count as active. 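Calls are per gene from RSA p-values that are not deposited; an individual active-marked siRNA can sensitise only weakly.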 A number with no mark means an inactive call. The numbers tell different reagents against one gene apart. Reagent sequences are not shown.

Purpose: 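Knock-downs that sensitise breast cancer cells to camptothecin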 (primary screen)
Cell system: MDA-MB-231 cells, a human breast cancer line
Reagent: single siRNA against human genes, 20 nM siRNA (0.8 pmol per well)
Time to read-out: 120 h (drug added 48 h after transfection, read 72 h later)
Challenge: camptothecin 20 nM (about EC30) for 72 h; vehicle 0.1% DMSO in parallel plates
Measurement: 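Cell viability by ATP luminescence (CellTiter-Glo) as % of non-targeting siRNA wells, and the log2 ratio of viability without drug over viability with camptothecin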
Reading the numbers: log2 vehicle/camptothecin viability: higher = stronger sensitisation to camptothecin; viability with camptothecin and viability without drug: higher = more viable cells
Rule for the call: 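Each gene scored by redundant siRNA activity (RSA) over its individual siRNA ratios; a gene is called active at p < 0.001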

| gene knocked down | siRNA no. | log2 vehicle/camptothecin viability | viability with camptothecin (% of control) | viability without drug (% of control) |
| --- | --- | --- | --- | --- |
| STK4 | 1 | 0.117 | 89.3 | 96.9 |
| STK4 | 2 | 0.19 | 71.5 | 81.6 |
| STK4 | 3 | 0.118 | 88.9 | 96.5 |
| STK4 | 4 | -0.307 | 72.7 | 58.8 |
| LDLRAP1 | 1 | 0.51 | 65.9 | 93.8 |
| LDLRAP1 | 2 | 0.305 | 53 | 65.4 |
| LDLRAP1 | 3 | -0.226 | 105 | 89.6 |
| LDLRAP1 | 4 | -0.114 | 78.8 | 72.8 |
| ACADVL | 1 | 0.765 | 31.1 | 52.8 |
| ACADVL | 2 | 0.376 | 66.5 | 86.3 |
| ACADVL | 3 | -0.066 | 97.4 | 93 |
| ACADVL | 4 | -0.339 | 112 | 88.3 |
| EPHB1 | 1 | -0.133 | 118 | 108 |
| EPHB1 | 2 | -0.511 | 81.2 | 57 |
| EPHB1 | 3 | 0.0437 | 94.2 | 97.1 |
| EPHB1 | 4 | 1.32 | 9.36 | 23.3 |
| FAT2 | 1 | -0.0969 | 106 | 99.5 |
| FAT2 | 2 | 0.239 | 42.4 | 50 |
| FAT2 | 3 | -0.201 | 89.5 | 77.8 |
| UTRN | 1 | -0.0432 | 88.6 | 86 |
| UTRN | 2 | -0.263 | 67.4 | 56.1 |
| UTRN | 3 | 0.289 | 25 | 30.5 |
| UTRN | 4 | -0.273 | 103 | 85.2 |
| HPD | 1 | -0.905 | 27.5 | 14.7 |
| HPD | 2 | -0.618 | 29 | 18.9 |
| HPD | 3 | -0.128 | 72.3 | 66.1 |
| CA1 | 1 | 0.472 | 49.5 | 68.7 |
| CA1 | 2 | -0.14 | 94 | 85.3 |
| CA1 | 3 | -0.471 | 82.5 | 59.5 |

Records listed so far whose gene name begins with E or e:
| gene knocked down | siRNA no. | log2 vehicle/camptothecin viability | viability with camptothecin (% of control) | viability without drug (% of control) |
| --- | --- | --- | --- | --- |
| EPHB1 | 1 | -0.133 | 118 | 108 |
| EPHB1 | 2 | -0.511 | 81.2 | 57 |
| EPHB1 | 3 | 0.0437 | 94.2 | 97.1 |
| EPHB1 | 4 | 1.32 | 9.36 | 23.3 |
